Data as given in PubChem BioAssay AID1224828 (NIAID, 2016)

Screen: 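Regulators linking TLR4 signalling to p65 nuclear translocation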 (primary screen)
System: mouse RAW264.7 G9 macrophage reporter cells (GFP-p65, Tnf promoter-mCherry)
Reagents: siRNA pool against mouse genes, 100 nM
Timing: 2 days siRNA transfection, then 40 min LPS before fixation
Treatment: LPS (Salmonella minnesota R595) at 10 ng/ml
Measurement: 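Imaged p65 nuclear translocation ratio, normalised to the plate median, converted to robust z-scores and averaged across two replicates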
Direction: p65 translocation robust z-score: higher = more nuclear NF-kappaB p65 after LPS than the plate median; nuclear/cytoplasmic p65 ratio: higher = more nuclear NF-kappaB p65
Call rule: 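Active if robust z is above 3.3 (negative regulators) or below -1.56, the Tlr4 control median (positive regulators); activity score 50 or more; control wells not called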
Calls: active = hit (p65 shift raised or lowered); inactive = no clear change
In all, the deposit lists about 17,000 reagents; shown is a random part of them. 762 of them (4.5%) count as active. 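Active calls include both raised and lowered p65 entry, mostly lowered; wells with fewer than 50 cells lack a z-score.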 Raw values vary from plate to plate and are shown uncorrected. Entries without a mark were called inactive. The numbers tell different reagents against one gene apart. No sequences are given here.

The first 2 entries, ahead of the listing:
no.	Gene	reagent	p65 translocation robust z-score	nuclear/cytoplasmic p65 ratio, rep 1	nuclear/cytoplasmic p65 ratio, rep 2	low cell count flag
1	4933421I07Rik (RIKEN cDNA 4933421I07 gene)	1	0.01	1.36	1.39	enough cells to score
2	Ints6l (integrator complex subunit 6 like)	1	-0.05	1.37	1.44	enough cells to score

The list itself, from the first entry:
no.	Gene	reagent	p65 translocation robust z-score	nuclear/cytoplasmic p65 ratio, rep 1	nuclear/cytoplasmic p65 ratio, rep 2	low cell count flag
1	4933421I07Rik (RIKEN cDNA 4933421I07 gene)	1	0.01	1.36	1.39	enough cells to score
2	Ints6l (integrator complex subunit 6 like)	1	-0.05	1.37	1.44	enough cells to score
3	Oscar (osteoclast associated receptor)	1	0.66	1.5	1.35	enough cells to score
4	Klk1b16 (kallikrein 1-related peptidase b16)	1	1.32	1.69	1.65	enough cells to score
5	Dyrk1b	1	0.52	1.73	1.48	enough cells to score
6	Unc45b (unc-45 myosin chaperone B)	1	0.4	1.67	1.83	enough cells to score
7	Sh3pxd2a (SH3 and PX domains 2A)	1	-0.45	1.49	1.48	enough cells to score
8	Sh3pxd2a (SH3 and PX domains 2A)	2		2.12	1.7	fewer than 50 cells per well; well left out of scoring
9	Rtbdn (retbindin)	1	0.75	1.68	1.98	enough cells to score
10	Vmn1r32 (vomeronasal 1 receptor 32)	1	-0.38	1.33	1.2	enough cells to score
11	Ncdn (neurochondrin)	1	-2.1 (active)	1.36	1.34	enough cells to score
12	Mkln1 (muskelin 1, intracellular mediator containing kelch motifs)	1	-2.03 (active)	1.33	1.31	enough cells to score
13	4930524B15Rik (RIKEN cDNA 4930524B15 gene)	1		1.4	1.11	fewer than 50 cells per well; well left out of scoring
14	Mrpl40 (mitochondrial ribosomal protein L40)	1	1.83	2.09	1.86	enough cells to score
15	Mbl2 (mannose-binding lectin (protein C) 2)	1	0.91	1.56	1.46	enough cells to score
16	Ntmt1 (N-terminal Xaa-Pro-Lys N-methyltransferase 1)	1	-0.62	1.33	1.38	enough cells to score
17	Upk3a (uroplakin 3A)	1		1.11	1.01	fewer than 50 cells per well; well left out of scoring
18	Polr2d (polymerase (RNA) II (DNA directed) polypeptide D)	1	1.08	1.47	2.08	enough cells to score
19	Vrk3 (vaccinia related kinase 3)	1	-0.89	1.4	1.27	enough cells to score
20	Hook1 (hook microtubule tethering protein 1)	1	0.92	1.83	1.63	enough cells to score
21	Vmn1r5 (vomeronasal 1 receptor 5)	1	1.83	1.61	1.45	enough cells to score
22	Itk (IL2 inducible T cell kinase)	1	-1.15	1.82	1.23	enough cells to score
23	Prkch (protein kinase C, eta)	1	-0.67	1.55	1.32	enough cells to score
24	Cenpn (centromere protein N)	1	0.34	1.78	1.55	enough cells to score
25	Tubd1 (tubulin, delta 1)	1	-0.72	1.5	1.32	enough cells to score
26	Slc5a5	1	0.34	1.61	1.53	enough cells to score
27	Arid2 (AT-rich interaction domain 2)	1		1.58	1.76	fewer than 50 cells per well; well left out of scoring
28	Flvcr1 (feline leukemia virus subgroup C cellular receptor 1)	1	-3.33 (active)	0.984	1.07	enough cells to score
29	Pold4 (polymerase (DNA-directed), delta 4)	1	-1.39	1.14	1.06	enough cells to score
30	Or2z9 (olfactory receptor family 2 subfamily Z member 9)	1	-0.1	1.59	1.32	enough cells to score
31	Nfkbil1	1	-0.12	1.46	1.37	enough cells to score
32	Pou3f3 (POU domain, class 3, transcription factor 3)	1	0.48	1.59	1.45	enough cells to score
33	Nfkb1	1	0.37	1.53	1.43	enough cells to score
34	Cyp4f15 (cytochrome P450, family 4, subfamily f, polypeptide 15)	1	0.26	1.62	1.82	enough cells to score
35	Slc17a4	1	-1.82 (active)	1.16	1.29	enough cells to score
36	Psca (prostate stem cell antigen)	1	-0.13	1.36	1.21	enough cells to score
37	Fcho2 (FCH domain only 2)	1	1.45	1.49	1.72	enough cells to score
38	Ca2 (carbonic anhydrase 2)	1	-0.34	1.54	1.59	enough cells to score
39	Kif4 (kinesin family member 4)	1	-0.34	1.49	1.28	enough cells to score
40	Hebp2 (heme binding protein 2)	1	1.16	2	1.55	enough cells to score
41	Bbox1 (gamma-butyrobetaine hydroxylase 1)	1	1.05	1.75	2.01	enough cells to score
42	Vmn1r40 (vomeronasal 1 receptor 40)	1	0.65	1.47	1.3	enough cells to score
43	Sell (selectin, lymphocyte)	1	1.05	1.59	1.81	enough cells to score
44	Saxo6 (stabilizer of axonemal microtubules 6)	1	-0.1	1.43	1.33	enough cells to score
45	Gal (galanin and GMAP prepropeptide)	1	-0.17	1.55	1.49	enough cells to score
46	Selenbp2 (selenium binding protein 2)	1	1.04	1.64	1.76	enough cells to score
47	Tgm5 (transglutaminase 5)	1		1.32	1.18	fewer than 50 cells per well; well left out of scoring
48	Brap (BRCA1 associated protein)	1	0.53	1.71	1.68	enough cells to score
49	Cxcl13 (C-X-C motif chemokine ligand 13)	1	-1.31	1.32	1.19	enough cells to score
50	Helz2 (helicase with zinc finger 2, transcriptional coactivator)	1	-0.98	1.47	1.46	enough cells to score
51	H3f3b (H3.3 histone B)	1	0	1.42	1.39	enough cells to score
52	Ufm1 (ubiquitin-fold modifier 1)	1		1.24	1.28	fewer than 50 cells per well; well left out of scoring
53	Rbm28 (RNA binding motif protein 28)	1	1.02	1.62	1.28	enough cells to score
54	Cd36 (CD36 molecule)	1	0.95	1.59	1.5	enough cells to score
55	Tmc7 (transmembrane channel-like gene family 7)	1		1.5	1.4	fewer than 50 cells per well; well left out of scoring
56	Ciita (class II transactivator)	1	0.53	1.71	1.68	enough cells to score
57	Sidt1 (SID1 transmembrane family, member 1)	1	0.07	1.58	1.87	enough cells to score
58	Fancl (Fanconi anemia, complementation group L)	1	1.22	1.76	1.43	enough cells to score
59	Ccdc71l (coiled-coil domain containing 71 like)	1		1.3	1.52	fewer than 50 cells per well; well left out of scoring
